In patent publication US20220403040A1:
These are yes or no findings as the source states them, for the method shown. Some entries that bind do so weakly or less than the wild type.

By UniProt entry, the sequences of proteins in these tests, tags left out. Where a name states a change or a piece, a line headed by the entry shows the natural chain unless it says otherwise. Residues count along the entry.
UniProt A9YYE7, residues 24-186: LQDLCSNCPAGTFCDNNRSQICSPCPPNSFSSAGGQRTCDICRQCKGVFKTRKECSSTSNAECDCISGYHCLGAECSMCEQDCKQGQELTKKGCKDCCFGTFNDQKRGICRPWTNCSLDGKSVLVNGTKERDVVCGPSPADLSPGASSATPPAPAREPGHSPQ

Experiments:
[1] = target: Cyno CD137-his (Sino Biological, 90847-K02H-100) (cynomolgus monkey) (UniProt A9YYE7); experiment: BLI (Octet)
[2] = target: Cyno CD137-his (Sino Biological, 90847-K02H-100) (cynomolgus monkey) (UniProt A9YYE7); experiment: biolayer interferometry (Octet), antibody captured on anti-human IgG Fc (AHC) sensor, cynomolgus CD137-his in solution
[3] = target: cynomolgus-CD137 ECD (cynomolgus monkey) (UniProt A9YYE7); experiment: ELISA of Fab in supernatants after phage panning

Row | binding [1] | binding [2] | binding [3] | Binder
1 | binds | binds | – | Anti-CD137 clone 2-9 IgG2 wt (antibody, V domains shown) VH: QVQLVQSGAEVKKPGASVKASCKASGFNIQDTYIHWVRQAPGQGLEWMGRIDPANGNSEYAQKFQGRVTMTRDTSTSTVYMELSSLRSEDTAVYYCTTGNLHYALMDYWGQGTSVTVSS VL: DIQMTQSPSSVSASVGDRVTITCKASQPINTYLSWYQQKPGKAPKLLIYRVNRKVDGVPSRFSGSGSGTDFTLTISSLQPEDFATYYCLQYLDFPYTFGGGTKLEIKR
2 | – | – | binds | Clone 23 Fab (affinity-matured humanized 29.39) (Fab, V domains shown) VH: QVQLVQSGAEVKKPGASVKVSCKASGFNIKDTYIHWVRQAPGQGLEWMGKIDPANGQTEYAQKFQGRVTMTRDTSTSTVYMELSSLRSEDTAVYYCTTGNLHYALMDYWGQGTSVTVSS VL: DIQMTQSPSSVSASVGDRVTITCKASQAINTYLSWYQQKPGKAPKLLIYRANRMVGGVPSRFSGSGSGTDFTLTISSLQPEDFATYYCLQYRDFPYTFGGGTKLEIKR
3 | – | – | binds | Clone 25 Fab (affinity-matured humanized 29.39) (Fab, V domains shown) VH: QVQLVQSGAEVKKPGASVKVSCKASGFNIQDTYIHWVRQAPGQGLEWMGRIDPANGNSEYAQKFQGRVTMTRDTSTSTVYMELSSLRSEDTAVYYCTTGNLHYGLMDYWGQGTSVTVSS VL: DIQMTQSPSSVSASVGDRVTITCKASQAINTYLSWYQQKPGKAPKLLIYRDNRKVDGVPSRFSGSGSGTDFTLTISSLQPEDFATYYCLQYQDFPYKFGGGTKLEIKR
4 | – | – | binds | Clone 2-9 Fab (affinity-matured humanized 29.39) (Fab, V domains shown) VH: QVQLVQSGAEVKKPGASVKASCKASGFNIQDTYIHWVRQAPGQGLEWMGRIDPANGNSEYAQKFQGRVTMTRDTSTSTVYMELSSLRSEDTAVYYCTTGNLHYALMDYWGQGTSVTVSS VL: DIQMTQSPSSVSASVGDRVTITCKASQPINTYLSWYQQKPGKAPKLLIYRVNRKVDGVPSRFSGSGSGTDFTLTISSLQPEDFATYYCLQYLDFPYTFGGGTKLEIKR
5 | – | – | binds | Clone 3 Fab (affinity-matured humanized 29.39) (Fab, V domains shown) VH: QVQLVQSGAEVKKPGASVKVSCKASGFNPKDTYIHWVRQAPGQGLEWMGRIDPANGFTEYAQKFQGRVTMTRDTSTSTVYMELSSLRSEDTAVYYCTTGNLHYALMDYWGQGTSVTVSS VL: DIQMTQSPSSVSASVGDRVTITCKASQAINTYLSWYQQKPGKAPKLLIYRANRMVDGVPSRFSGSGSGTDFTLTISSLQHEDFATYYCLQSDDFPYTFGGGTKLEIKR
6 | – | – | binds | Clone 19 Fab (affinity-matured humanized 29.39) (Fab, V domains shown) VH: QVQLVQSGAEVKKPGASVKVSCKASGFNMKDTYIHWVRQAPGQGLEWMGKIDPANGATEYAQKFQGRVTMTRDTSTSTVYMELSSLRSEDTAVYYCTTGNLHYGLMDYWGQGTSVTVSS VL: DIQMTQSPSSVSASVGDRVTITCKASQAINTYLSWYQQKPGKAPKLLIYRANRMGDGVPSRFSGSGSGTDFTLTISSLQPEDFATYYCLQSDDFPYTFGGGTKLEIKR
7 | – | – | binds | Clone 5 Fab (affinity-matured humanized 29.39) (Fab, V domains shown) VH: QVQLVQSGAEVKKPGASVKVSCKASGFNIRDTYIHWVRQAPGQGLEWMGKIDPANGNTEYAQKFQGRVTMTRDTSTSTVYMELSSLRSEDTAVYYCTTGNLHYGLMDYWGQGTSVTVSS VL: DIQMTQSPSSVSASVGDRVTITCKASQAINTYHSWYQQKPGKAPKLLIYRVNRMVDGVPSRFSGSGSGTDFTLTISSLQPEDFATYYCLQYLDFPYTFGGGTKLEIKR
8 | – | – | binds | Clone 9 Fab (affinity-matured humanized 29.39) (Fab, V domains shown) VH: QVQLVQSGAEVKKPGASVKVSCKASGFNLKDTYIHWVRQAPGQGLEWMGKIDPANGNTEYAQKFQGRVTMTRDTSTSTVYMELSSLRSEDTAVYYCTTGNLHYALMDYWGQGTSVTVSS VL: DIQMTQSPSSVSASVGDRVTITCKASQAIATYLSWYQQKPGKAPKLLIYRANRMYDGVPSRFSGSGSGTDFTLTISSLQPEDFATYYCLQFDDFPYTFGGGTKLEIKR
9 | – | – | binds | Clone 2-11 Fab (affinity-matured humanized 29.39) (Fab, V domains shown) VH: QVQLVQSGAEVKKPGASVKVSCKASGFNIKDTYIHWVRQAPGQGLEWMGKIDPANGGTEYAQKFQGRVTMTRDTSTSTVYMELSSLRSEDTAVYYCTTGNLHYALMDYWGQGTSVTVSS VL: DIQMTQSPSSVSASVGDRVTITCKASQPINTYLSWYQQKPGKAPKLLIYRVNRKVDGVPSRFSGSGSGTDFTLTISSLQPEDFATYYCLQYVDFPYTFGGGTKLEIKR
10 | – | – | binds | Clone 33 Fab (affinity-matured humanized 29.39) (Fab, V domains shown) VH: QVQLVQSGAEVKKPGASVKVSCKASGFNIKDTYIQWVRQAPGQGLEWMGKIDPANGNTMYAQKFQGRVTMTRDTSTSTVYMELSSLRSEDTAVYYCTTGNLHYALMDYWGQGTSVTVSS VL: DIQMTQSPSSVSASVGDRVTITCKASQTINTYLSWYQQKPGKAPKLLIYRANRMPDGVPSRFSGSGSGTDFTLTISSLQPEDFATYYCLQYDDFPYTFGGGTKLEIKR
11 | – | – | binds | Clone 18 Fab (affinity-matured humanized 29.39) (Fab, V domains shown) VH: QVQLVQSGAEVKKPGASVKVSCQASGFNIKDTYIHWVRQAPGQGLGWMGKIDPANGMTEYAQKFQGRVTVTRDTSTSTVYMELSSLRSEDTAVYYCTTGNLHYALMDYWGQGTSVTVSS VL: DIQMTQSPSSVSASVGDRVTITCKASQAPNTYLSWYQQKPGKAPKLLIYRANRMVDGVPSRFSGSGSGTDFTLTISSLQPEDFATYYCLQYEDFPYTFGGGTKLEIKR
12 | – | – | binds | Clone 35 Fab (affinity-matured humanized 29.39) (Fab, V domains shown) VH: QVQLVQSGAEVKKPGASVKVSCKASGFNINDTYIHWVRQAPGQGLEWMGRIDPANGYTEYAQKFQGRVTMTRDTSTSTVYMELSSLRSEDTAVYYCTTGNLHYALMDYWGQGTSVTVSS VL: DIQMTQSPSSVSASVGDRVTITCKASQAIATYLSWYQQKPGKAPKLLIYRANRMVDGVPSRFSGSGSGTDFTLTISSLQPEDFATYYCLQFQDFPYTFGGGTKLEIKR
13 | – | – | binds | Clone 20 Fab (affinity-matured humanized 29.39) (Fab, V domains shown) VH: QVQLVQSGAEVKKPGASVKVSCKASGFNMKDTYIHWVRQAPGQGLEWMGKIDPANGDTEYAQKFQGRVTMTRDTSTSTVYMELSSLRSEDTAVYYCTTGNLHYALMDYWGQGTSVTVSS VL: DIQMTQSPSSVSASVGDRVTITCKASQAINTYLSWYQQKPGKAPKLLIYRANRAVDGVPSRFSGSGSGTDFTLTISSLQPEDFATYYCLQYLDFPYTFGGGTKLEIKR
